The other results are listed elsewhere or left out. These are further read-outs of the screen, such as a control signal, another cell line or another target. No call is given for them. Compounds called inactive in the main read-out are mostly missing here. Potencies come from curve fits of mixed quality, noted in brackets.
Assay: qHTS Assay for Lipid Storage Modulators in Drosophila S3 Cells;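 on cell number change: cells counted by Cell Tracker Red CMTPX staining in the red channel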
Details: BODIPY lipid droplet fluorescence, 18-24 h; for cell number change: measured here: cell count max response, cells fed with added oleic acid
Summary of the method: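 Drosophila S3 cells got compounds at several concentrations plus oleic acid (400 uM solution). Laser-scanning cytometry with 488 nm excitation read lipid droplets at 500-530 nm and cells at 575-640 nm. Percent activity was relative to 20 uM Triacsin C.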

[1] = measured here: lipid fluorescence (Fed channel) AC50, cells fed with added oleic acid
[2] = measured here: cell number channel AC50, cells fed with added oleic acid

| SMILES | cell number change [%] | AC50 [1] | AC50 [2] |
| --- | --- | --- | --- |
| Cc1nn(Cc2ccc(C(=O)NC3CCCCC3)o2)c(C)c1Br | 1.48 | 29.1 µM [rising, single point] | – |
| COc1ccc(OC)c(N(C(=O)c2snc(C(N)=O)c2N)C(C(=O)NCc2ccccc2)c2ccc(O)cc2)c1 (stereo not given) | 15.3 | 0.58 µM [falling, single point] | – |
| COc1cc2c(cc1OC)-c1cc3ccc(OC)c(OC)c3c[n+]1CC2 | – | 29.1 µM [rising, single point] | – |
| O=C(COc1ccc(C2SCCS2)cc1)NNC(=O)C(Cl)Cl | 20.4 | 51.7 µM [rising, partial curve] | – |
| NC(=O)c1ccc(N=Cc2ccc([N+](=O)[O-])s2)cc1 | -78.5 | – | 23.1 µM [falling, single point] |
| CC(C)OC(=O)Cn1c(=O)oc2ccccc21 | -18.6 | – | – |
| CC(=O)Oc1ccc(C(=O)NCc2ccc3c(c2)OCO3)cc1 | -4.67 | 29.1 µM [rising, single point] | – |
| COC(=O)[C@H]1[C@H]2C[C@@H]3c4[nH]c5cc(OC)ccc5c4CCN3C[C@H]2C[C@@H](OC(=O)c2cc(OC)c(OC)c(OC)c2)[C@@H]1OC | 21.7 | 2.06 µM [rising, partial curve, poor fit] | 1.84 µM [rising, partial curve, poor fit] |
| Cc1cc(C2C(C#N)=C(N)OC3=C2C(=O)CCC3)c(C)s1 (stereo not given) | – | 0.82 µM [falling, single point] | 1.64 µM [falling, partial curve] |
| CC1(C)NC(=O)N(CC(=O)OCC(=O)Nc2cccc(F)c2)C1=O | -64.7 | – | 3.66 µM [falling, full curve] |
| O=C(/C=C/c1ccccc1F)N1CCN(c2ccccn2)CC1 | 2.71 | 3.26 µM [rising, single point] | – |
| COc1ccc(N2CCN(C(=O)c3ccc(OCc4c(C)noc4C)c(OC)c3)CC2)cc1 | 171 | – | 23.1 µM [rising, single point] |
| O=C(CC1SC(=O)NC1=O)Nc1ccc(Cl)cc1 (stereo not given) | 3.24 | – | – |
| COC(=O)c1ccc(C(=S)N2CCOCC2)cc1 | – | 23.1 µM [falling, partial curve] | – |
| Cc1cccc(N2NC(=O)/C(=C/c3ccc(-c4ccc(Cl)c(C(=O)O)c4)o3)C2=O)c1 | 9.6 | 0.58 µM [falling, single point] | – |
| O=C(N/N=C/c1oc(O)c2ccccc12)c1ccccc1 | -3.19 | 6.51 µM [falling, single point] | – |
| CN(C)S(=O)(=O)c1cccc(COC(=O)c2cccnc2Cl)c1 | 9.46 | 4.11 µM [falling, full curve] | 0.103 µM [rising, full curve, poor fit] |
| Cc1ccc(SC(CC(=O)c2ccc(C(C)(C)C)cc2)C(=O)O)cc1 (stereo not given) | -22.5 | 0.58 µM [falling, full curve] | 0.651 µM [falling, full curve, poor fit] |
| CN(/N=C/c1ccc(O)cc1O)c1nc(-c2ccccc2)cc(-c2ccccc2)n1 | -59 | 29.1 µM [falling, single point] | 18.4 µM [falling, single point] |
| CC(=O)C1=C(O)C(=O)N(Cc2ccccc2)C1c1ccco1 (stereo not given) | -30.2 | 23.1 µM [falling, partial curve] | 7.31 µM [falling, partial curve, poor fit] |
| O=S(=O)(c1ccc(Cl)nc1)N1CCN(Cc2ccc3c(c2)OCO3)CC1 | 41.8 | – | – |

Retrieved by structure from above:

| SMILES | cell number change [%] | AC50 [1] | AC50 [2] |
| --- | --- | --- | --- |
| COC(=O)[C@H]1[C@H]2C[C@@H]3c4[nH]c5cc(OC)ccc5c4CCN3C[C@H]2C[C@@H](OC(=O)c2cc(OC)c(OC)c(OC)c2)[C@@H]1OC | 21.7 | 2.06 µM [rising, partial curve, poor fit] | 1.84 µM [rising, partial curve, poor fit] |
| COC(=O)c1ccc(C(=S)N2CCOCC2)cc1 | – | 23.1 µM [falling, partial curve] | – |

(more compounds)

| SMILES | cell number change [%] | AC50 [1] | AC50 [2] |
| --- | --- | --- | --- |
| COc1ccc(OCC(=O)N2CCN(C(=O)COc3ccc(Br)cc3)CC2)cc1 | – | 2.91 µM [rising, partial curve] | – |
| COc1ccc(N2C(=O)C3CCCN3C2c2ccccc2OC)cc1 (stereo not given) | 8.16 | – | 0.92 µM [rising, full curve, poor fit] |
| Cc1[nH]nc2c1C(c1ccco1)C(C#N)=C(N)O2 (stereo not given) | 30.5 | 29.1 µM [rising, single point] | 29.1 µM [rising, single point] |
| CC(C)(C)c1nnc(NC(=O)CCS(=O)(=O)c2ccccc2)s1 | 3.95 | 0.398 µM [rising, full curve, poor fit] | – |
| CC(=O)Oc1ccc2ccccc2c1C(NC(=O)Cc1ccccc1)c1ccccc1Cl (stereo not given) | – | – | 4.61 µM [falling, partial curve, poor fit] |
| CC(C)NC(=O)C(=O)NC1CCCCCC1 | -4.07 | – | – |
| Cc1cccc(C(=O)N2CCN(Cc3ccc4c(c3)OCO4)CC2)c1 | -5.31 | – | – |
| Cc1nn(C(C)C(=O)NCCCN2CCCCCC2)c(=O)c2cc3sccc3n12 (stereo not given) | 21.5 | – | – |
| CCc1ccccc1NC(=O)CN1CCN(C(=O)C2CCN(C(=O)/C=C/c3ccccc3)CC2)CC1 | 0.82 | – | – |
| Cc1cc(C)cc(N(CC(=O)Nc2ccc(Br)cc2)S(=O)(=O)c2c(C)[nH]c(=O)[nH]c2=O)c1 | 10.3 | – | – |
| O=C(Nc1ccccc1C(=O)Nc1ccc(Cl)cc1)c1cccnc1 | 11.9 | – | – |
| Cc1cccc(-n2cc(CNCCc3nc(C)cc(C)n3)c(-c3cccc(F)c3)n2)c1 | -4.13 | – | 0.58 µM [rising, full curve, poor fit] |
| COc1ccc(/C=C/C=N/NC(=O)COc2ccc(OC)cc2)cc1 | 24.9 | 4.61 µM [rising, full curve, poor fit] | – |
| CN(CC(=O)Nc1ccc(N2CCOCC2)cc1)C(=O)c1ccc(O)c(Cl)c1 | – | 29.1 µM [rising, partial curve, poor fit] | – |
| COc1ccccc1C(=O)NCCC(=O)NCCOc1ccccc1 | -11.5 | 14.1 µM [falling, single point] | – |
| O=C(CCN1CCN(S(=O)(=O)c2cccc([N+](=O)[O-])c2)CC1)Nc1ccccc1F | 12.4 | 29.1 µM [falling, partial curve, poor fit] | – |
| COc1ccc(Br)cc1C(=O)Nc1ccc(C(=O)O)cc1 | -14.5 | 0.112 µM [falling, full curve, poor fit] | – |
| OCCOc1cccc(CN2CCC(CO)(CCOc3ccccc3)CC2)c1 | 20 | 6.51 µM [falling, single point] | – |
| CCCCC(=O)Nc1cccc(-c2nnc(-c3ccccc3)o2)c1 | – | 0.0517 µM [rising, full curve, poor fit] | 0.0731 µM [rising, full curve] |
| COc1cc2c(cc1OC)CN(C(=O)CNS(=O)(=O)c1ccc(C)c(C)c1)CC2 | 11.7 | 1.16 µM [rising, single point] | – |
| CC(C)(C)c1ccc(OCCC(=O)OCC(=O)NC2CCS(=O)(=O)C2)cc1 (stereo not given) | -25 | 0.00461 µM [falling, full curve, poor fit] | 3.26 µM [falling, full curve, poor fit] |

Entries above that contain four or more nitrogen atoms:

| SMILES | cell number change [%] | AC50 [1] | AC50 [2] |
| --- | --- | --- | --- |
| COc1ccc(OC)c(N(C(=O)c2snc(C(N)=O)c2N)C(C(=O)NCc2ccccc2)c2ccc(O)cc2)c1 (stereo not given) | 15.3 | 0.58 µM [falling, single point] | – |
| CN(/N=C/c1ccc(O)cc1O)c1nc(-c2ccccc2)cc(-c2ccccc2)n1 | -59 | 29.1 µM [falling, single point] | 18.4 µM [falling, single point] |
| Cc1[nH]nc2c1C(c1ccco1)C(C#N)=C(N)O2 (stereo not given) | 30.5 | 29.1 µM [rising, single point] | 29.1 µM [rising, single point] |
| Cc1nn(C(C)C(=O)NCCCN2CCCCCC2)c(=O)c2cc3sccc3n12 (stereo not given) | 21.5 | – | – |
| CCc1ccccc1NC(=O)CN1CCN(C(=O)C2CCN(C(=O)/C=C/c3ccccc3)CC2)CC1 | 0.82 | – | – |
| Cc1cc(C)cc(N(CC(=O)Nc2ccc(Br)cc2)S(=O)(=O)c2c(C)[nH]c(=O)[nH]c2=O)c1 | 10.3 | – | – |
| Cc1cccc(-n2cc(CNCCc3nc(C)cc(C)n3)c(-c3cccc(F)c3)n2)c1 | -4.13 | – | 0.58 µM [rising, full curve, poor fit] |
| O=C(CCN1CCN(S(=O)(=O)c2cccc([N+](=O)[O-])c2)CC1)Nc1ccccc1F | 12.4 | 29.1 µM [falling, partial curve, poor fit] | – |

Remaining list, next part:

| SMILES | cell number change [%] | AC50 [1] | AC50 [2] |
| --- | --- | --- | --- |
| COc1ccccc1/C=C/C(=O)NNC(=O)c1cccs1 | -21.6 | 0.291 µM [rising, full curve] | – |
| CCN(C(=O)COC(=O)c1cc(S(=O)(=O)Nc2c(C)n(C)n(-c3ccccc3)c2=O)ccc1Cl)C1CCCCC1 | – | 4.11 µM [falling, single point] | – |
| O=C(NCc1ccccc1)c1onc(CSc2nc3ccccc3[nH]2)c1C(=O)NCc1ccccc1 | – | 16.4 µM [falling, partial curve] | – |
| O=C(NC(=S)Nc1ccc2cn[nH]c2c1)c1ccccc1 | -22.2 | – | 2.06 µM [rising, partial curve] |
| CCN(CC)C(=O)CSc1nc(O)c(Cc2ccc(OC)cc2)c(=O)[nH]1 | 1.59 | – | – |
| O=C(Nc1ccc2c(c1)OCO2)C1CC(c2ccccc2Cl)=NO1 (stereo not given) | -1.59 | 3.26 µM [rising, full curve] | – |
| C/C=C/c1ccc(OCC(=O)Nc2cc(Cl)ccc2-n2cncn2)c(OC)c1 | – | 1.84 µM [rising, partial curve] | 0.92 µM [rising, partial curve, poor fit] |
| O=C(Cc1ccccc1)NCC(=O)OCC(=O)c1cccs1 | 14.3 | – | – |
| Cn1c(SCC(=O)NC2CC2)nnc1C(F)(F)F | -0.91 | 18.4 µM [falling, single point] | – |
| Cc1cccc2cc(CN(CC3CCCO3)C(=S)Nc3ccccc3)c(=O)[nH]c12 (stereo not given) | -5.78 | 29.1 µM [falling, single point] | – |
| COc1nc(N)c(C#N)c(-c2ccc(N(C)CCC#N)cc2)c1C#N | 4.11 | 1.46 µM [rising, partial curve] | – |
| CCCCOC(=O)c1ccc(N2C(=O)CC(N3CCN(C/C=C/c4ccccc4)CC3)C2=O)cc1 (stereo not given) | -10.2 | 29.1 µM [rising, single point] | 0.731 µM [falling, single point] |
| Cc1nn(-c2ccccc2)c2sc(C(=O)NCCN3CCOCC3)cc12 | 3.97 | – | – |
| Cc1ccc(C(=O)C(C)OC(=O)CNC(=O)c2ccc(Br)o2)cc1 (stereo not given) | 24.5 | 4.61 µM [rising, full curve] | – |
| Cc1ccc(NC(=O)CN(C)S(=O)(=O)c2cccs2)cc1C | 30 | – | 2.91 µM [rising, full curve, poor fit] |
| Cc1cc(C)cc(N(CC(=O)Nc2ccccc2-c2ccccc2)S(=O)(=O)c2ccccc2)c1 | 25.1 | 4.11 µM [rising, full curve, poor fit] | – |
| CCN(CC)c1nc(N2CCOCC2)nc2ccccc12 | 24.3 | – | – |
| CCOC(=O)c1cc2occc2n1CC(=O)N1CCOCC1 | 31.3 | – | 18.4 µM [rising, single point] |
| S=c1[nH]cc(-c2ccccc2)n1-c1ccccc1Cl | 0.627 | 0.116 µM [rising, full curve, poor fit] | – |
